From paper PMC11781183 come the findings set out here.

This test addresses NF-κB/p65 subunit, endogenous (human (endogenous in HepG2, SK-hep1)), Q04206. The experiment in a line: co-IP; Pierce Co-IP Kit; extracts of HCC cells (HepG2, Huh7, SK-hep1; parent cells or cells with lentiviral DDX17 overexpression) incubated overnight with anti-DDX17, anti-β-catenin or anti-p65, isotype IgG as negative control; Western blotting; some cells stimulated with rCXCL8 (50 ng/mL, 24 h), TNFα (15 ng/mL, 24 h) or IL-1β (10 ng/mL, 24 h). The following applies: remark: other sources report otherwise.

Results are given in words; binding and its absence hold for the method and conditions named. In cells and extracts the contact can be indirect. Some entries that bind do so weakly or less than the wild type.

B1: β-catenin, endogenous, P35222 1-781 (protein)
chain: MATQADLMELDMAMEPDRKAAVSHWQQQSYLDSGIHSGATTTAPSLSGKGNPEEEDVDTSQVLYEWEQGFSQSFTQEQVADIDGQYAMTRAQRVRAAMFPETLDEGMQIPSTQFDAAHPTNVQRLAEPSQMLKHAVVNLINYQDDAELATRAIPELTKLLNDEDQVVVNKAAVMVHQLSKKEASRHAIMRSPQMVSAIVRTMQNTNDVETARCTAGTLHNLSHHREGLLAIFKSGGIPALVKMLGSPVDSVLFYAITTLHNLLLHQEGAKMAVRLAGGLQKMVALLNKTNVKFLAITTDCLQILAYGNQESKLIILASGGPQALVNIMRTYTYEKLLWTTSRVLKVLSVCSSNKPAIVEAGGMQALGLHLTDPSQRLVQNCLWTLRNLSDAATKQEGMEGLLGTLVQLLGSDDINVVTCAAGILSNLTCNNYKNKMMVCQVGGIEALVRTVLRAGDREDITEPAICALRHLTSRHQEAEMAQNAVRLHYGLPVVVKLLHPPSHWPLIKATVGLIRNLALCPANHAPLREQGAIPRLVQLLVRAHQDTQRRTSMGGTQQQFVEGVRMEEIVEGCTGALHILARDVHNRIVIRGLNTIPLFVQLLYSPIENIQRVAAGVLCELAQDKEAAEAIEAEGATAPLTELLHSRNEGVATYAAAVLFRMSEDKPQDYKKRLSVELTSSLFRTEPMAWNETADLGLDIGAQGEPLGYRQDDPSYRSFHSGGYGQDALGMDPMMEHEMGGHHPGADYPVDGLPDLGHAQDLMDGLPPGDSNQLAWFDTDL
On to B1, for which the binding result was “binds”.
